# Laboratory results taken from patent US20240101685A1, “NEAR INFRARED PHOTOIMMUNOTHERAPY (NIR-PIT) COMBINATION THERAPY TO TREAT CANCER” (THE UNITED STATES OF AMERICA, as represented by the …, priority 2021, published 2024).
# Experiment: In vivo ligand release of alb-IR700 after NIR light exposure
# Design: species or system athymic nude mice
# Conditions: alb-IR700 50 μg i.v.; L-NaAA 80 mg or L-cysteine 10.5 mg via tail vein 2 minutes before NIR 20 J cm^-2
smiles,measurement,value
"O=C1O[C@H]([C@@H](O)CO)C([O-])=C1O.[Na+] [L-NaAA, L-sodium ascorbate]",700 nm fluorescence after NIR light exposure of alb-IR700,fluorescence was significantly decreased compared to the condition without L-NaAA
N[C@@H](CS)C(=O)O [L-cysteine],700 nm fluorescence after NIR light exposure of alb-IR700,no obvious changes in fluorescence
